Data from publication PMC5282884.
These are yes or no findings as the source states them, for the method shown. Binding seen in cells or lysates may run through a third protein. Some binding calls cover weakened binding; strength is not graded here. For some assays here: Where a sequence is shown, tags or fusion partners need not be part of it.

What was measured:
[1] = target: T1, Nuclear Receptor-Interacting Protein 2 (NRIP2) with Myc-Tag (human) (UniProt Q9BQI9); experiment: co-IP; lysates from NRIP2-overexpressing SGC cancer cells or control cells; precipitated with myc-tag antibody agarose beads, western blot with anti-RORβ antibodies; normal rabbit IgG agarose beads as negative control; RIPA lysis buffer with 1% NP-40, 0.25% deoxycholic acid, 5 mM DTT, 4 °C
T1 sequence: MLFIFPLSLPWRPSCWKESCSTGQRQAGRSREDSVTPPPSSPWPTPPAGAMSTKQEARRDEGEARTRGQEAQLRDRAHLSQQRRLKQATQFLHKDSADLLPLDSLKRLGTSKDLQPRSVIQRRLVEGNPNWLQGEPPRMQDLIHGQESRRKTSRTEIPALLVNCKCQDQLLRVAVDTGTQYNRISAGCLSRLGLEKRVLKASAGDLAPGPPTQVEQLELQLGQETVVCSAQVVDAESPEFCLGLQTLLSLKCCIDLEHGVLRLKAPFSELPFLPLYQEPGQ

[2] = target: T2, endogenous RORβ (human (endogenous in P1 primary colorectal cancer cells)) (UniProt Q92753); experiment: co-IP; endogenous proteins; lysates from P1 cells without treatment with protease inhibitor cocktails; precipitated with RORβ antibodies or mouse IgG (control), western blot with anti-NRIP2 antibodies
T2 sequence: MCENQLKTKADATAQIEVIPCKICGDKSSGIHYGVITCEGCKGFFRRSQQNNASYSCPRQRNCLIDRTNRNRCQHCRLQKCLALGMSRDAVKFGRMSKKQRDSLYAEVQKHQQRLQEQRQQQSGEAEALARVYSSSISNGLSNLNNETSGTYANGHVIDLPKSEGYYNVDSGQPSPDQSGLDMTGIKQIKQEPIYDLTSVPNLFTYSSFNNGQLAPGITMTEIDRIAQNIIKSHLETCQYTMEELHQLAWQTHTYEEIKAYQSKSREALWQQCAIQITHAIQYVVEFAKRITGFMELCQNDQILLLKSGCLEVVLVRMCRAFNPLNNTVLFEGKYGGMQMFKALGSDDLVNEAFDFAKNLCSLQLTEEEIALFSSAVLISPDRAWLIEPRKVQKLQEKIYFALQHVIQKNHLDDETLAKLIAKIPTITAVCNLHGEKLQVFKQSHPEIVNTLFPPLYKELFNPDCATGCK

| Binder | binding [1] | binding [2] |
| --- | --- | --- |
| retinoic acid-related orphan receptor β (RORβ) (protein, UniProt Q92753 1-470) MCENQLKTKADATAQIEVIPCKICGDKSSGIHYGVITCEGCKGFFRRSQQNNASYSCPRQRNCLIDRTNRNRCQHCRLQKCLALGMSRDAVKFGRMSKKQRDSLYAEVQKHQQRLQEQRQQQSGEAEALARVYSSSISNGLSNLNNETSGTYANGHVIDLPKSEGYYNVDSGQPSPDQSGLDMTGIKQIKQEPIYDLTSVPNLFTYSSFNNGQLAPGITMTEIDRIAQNIIKSHLETCQYTMEELHQLAWQTHTYEEIKAYQSKSREALWQQCAIQITHAIQYVVEFAKRITGFMELCQNDQILLLKSGCLEVVLVRMCRAFNPLNNTVLFEGKYGGMQMFKALGSDDLVNEAFDFAKNLCSLQLTEEEIALFSSAVLISPDRAWLIEPRKVQKLQEKIYFALQHVIQKNHLDDETLAKLIAKIPTITAVCNLHGEKLQVFKQSHPEIVNTLFPPLYKELFNPDCATGCK | binds | – |
| endogenous NRIP2 (protein, UniProt Q9BQI9 1-281) MLFIFPLSLPWRPSCWKESCSTGQRQAGRSREDSVTPPPSSPWPTPPAGAMSTKQEARRDEGEARTRGQEAQLRDRAHLSQQRRLKQATQFLHKDSADLLPLDSLKRLGTSKDLQPRSVIQRRLVEGNPNWLQGEPPRMQDLIHGQESRRKTSRTEIPALLVNCKCQDQLLRVAVDTGTQYNRISAGCLSRLGLEKRVLKASAGDLAPGPPTQVEQLELQLGQETVVCSAQVVDAESPEFCLGLQTLLSLKCCIDLEHGVLRLKAPFSELPFLPLYQEPGQ | – | binds |
